# Source: US20070197957A1, “Implantable sensors, implantable pumps and anti-scarring drug combinations” (priority 2005, published 2007)
# Some of these results come from one statement about several compounds together. At least one structure is not confirmed: it was looked up by name or label, or the drawing left a doubt.
# Tested on: collagenase mRNA
# Experiment: Effect of other anti-microtubule agents on IL-1 induced collagenase expression in primary chondrocytes
# Assay type: cell-based, calf
# Settings: chondrocytes pre-incubated 6 hours with agent, then IL-1 20 ng/ml 18 hours
row,Compound,concentration preventing IL-1-induced collagenase expression (as low as) [nM]
1,N#CC1=C(N)Oc2c(ccc3ccccc23)C1c1cccc([N+](=O)[O-])c1 (stereo not shown) [LY290181],≤ 100
2,Nc1ncnc2c1ccn2[C@@H]1O[C@H](CO)[C@@H](O)[C@H]1O [tubercidin],≤ 100
3,epothilone,≤ 100
4,hexylene glycol,≤ 100
